Results taken from the supplement of paper PMC11546906.
Structures can show the parent of a compound that is named as a salt. This is one part of the list. This data set is noisy: repeats of one test often differ as much as different tests do.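 Screen of FDA-approved drugs, each combined with colistin at one-eighth of its MIC, against a multidrug-resistant mcr-1-positive clinical E. coli isolate; growth read as OD600 after 24 h. Bacteria without drug were the growth control and plain broth the blank. A combination counted as active when OD600 fell below 0.2.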

What follows are compounds tested on Escherichia coli 42 (mcr-1-positive clinical isolate) (assay: OD600 after 24 h growth with compound plus colistin (absorbance units (OD600)); higher = more bacterial growth (less inhibition)). Conditions: first compound 25 µM; colistin concentration 0.5 ug/mL; incubation time 24 h; 37 °C.

SMILES | OD600
C[N+](C)(C)C[C@H](O)CC(=O)[O-] [L-Carnitine] + CCC(C)CCCC(=O)N[C@@H](CCN)C(=O)N[C@H](C(=O)N[C@@H](CCN)C(=O)N[C@H]1CCNC(=O)[C@H]([C@@H](C)O)NC(=O)[C@H](CCN)NC(=O)[C@H](CCN)NC(=O)[C@H](CC(C)C)NC(=O)[C@@H](CC(C)C)NC(=O)[C@H](CCN)NC1=O)[C@@H](C)O [colistin] | inactive: 1.1
Clc1ccc2c(c1)CCc1cccnc1C2=C1CCNCC1 [Desloratadine] + CCC(C)CCCC(=O)N[C@@H](CCN)C(=O)N[C@H](C(=O)N[C@@H](CCN)C(=O)N[C@H]1CCNC(=O)[C@H]([C@@H](C)O)NC(=O)[C@H](CCN)NC(=O)[C@H](CCN)NC(=O)[C@H](CC(C)C)NC(=O)[C@@H](CC(C)C)NC(=O)[C@H](CCN)NC1=O)[C@@H](C)O [colistin] | inactive: 0.728
O=C(O)C1=C(CSc2nnnn2CS(=O)(=O)O)CS[C@@H]2[C@H](NC(=O)[C@H](O)c3ccccc3)C(=O)N12 [Cefonicid sodium] + CCC(C)CCCC(=O)N[C@@H](CCN)C(=O)N[C@H](C(=O)N[C@@H](CCN)C(=O)N[C@H]1CCNC(=O)[C@H]([C@@H](C)O)NC(=O)[C@H](CCN)NC(=O)[C@H](CCN)NC(=O)[C@H](CC(C)C)NC(=O)[C@@H](CC(C)C)NC(=O)[C@H](CCN)NC1=O)[C@@H](C)O [colistin] | inactive: 1.02
Cc1oncc1C(=O)Nc1ccc(C(F)(F)F)cc1 [Leflunomide] + CCC(C)CCCC(=O)N[C@@H](CCN)C(=O)N[C@H](C(=O)N[C@@H](CCN)C(=O)N[C@H]1CCNC(=O)[C@H]([C@@H](C)O)NC(=O)[C@H](CCN)NC(=O)[C@H](CCN)NC(=O)[C@H](CC(C)C)NC(=O)[C@@H](CC(C)C)NC(=O)[C@H](CCN)NC1=O)[C@@H](C)O [colistin] | inactive: 1.07
COC1=CC(=O)C[C@@H](C)[C@]12Oc1c(Cl)c(OC)cc(OC)c1C2=O [Griseofulvin] + CCC(C)CCCC(=O)N[C@@H](CCN)C(=O)N[C@H](C(=O)N[C@@H](CCN)C(=O)N[C@H]1CCNC(=O)[C@H]([C@@H](C)O)NC(=O)[C@H](CCN)NC(=O)[C@H](CCN)NC(=O)[C@H](CC(C)C)NC(=O)[C@@H](CC(C)C)NC(=O)[C@H](CCN)NC1=O)[C@@H](C)O [colistin] | inactive: 1.03
Cn1c(=O)c2[nH]cnc2n(C)c1=O [Aminophylline] + CCC(C)CCCC(=O)N[C@@H](CCN)C(=O)N[C@H](C(=O)N[C@@H](CCN)C(=O)N[C@H]1CCNC(=O)[C@H]([C@@H](C)O)NC(=O)[C@H](CCN)NC(=O)[C@H](CCN)NC(=O)[C@H](CC(C)C)NC(=O)[C@@H](CC(C)C)NC(=O)[C@H](CCN)NC1=O)[C@@H](C)O [colistin] | inactive: 1
CNCC[C@H](Oc1cccc2ccccc12)c1cccs1 [Duloxetine hydrochloride] + CCC(C)CCCC(=O)N[C@@H](CCN)C(=O)N[C@H](C(=O)N[C@@H](CCN)C(=O)N[C@H]1CCNC(=O)[C@H]([C@@H](C)O)NC(=O)[C@H](CCN)NC(=O)[C@H](CCN)NC(=O)[C@H](CC(C)C)NC(=O)[C@@H](CC(C)C)NC(=O)[C@H](CCN)NC1=O)[C@@H](C)O [colistin] | inactive: 0.818
CCN[C@H]1C[C@H](C)S(=O)(=O)c2sc(S(N)(=O)=O)cc21 [Dorzolamide hydrochloride] + CCC(C)CCCC(=O)N[C@@H](CCN)C(=O)N[C@H](C(=O)N[C@@H](CCN)C(=O)N[C@H]1CCNC(=O)[C@H]([C@@H](C)O)NC(=O)[C@H](CCN)NC(=O)[C@H](CCN)NC(=O)[C@H](CC(C)C)NC(=O)[C@@H](CC(C)C)NC(=O)[C@H](CCN)NC1=O)[C@@H](C)O [colistin] | inactive: 0.993
CCCc1cc(=O)[nH]c(=S)[nH]1 [Propylthiouracil] + CCC(C)CCCC(=O)N[C@@H](CCN)C(=O)N[C@H](C(=O)N[C@@H](CCN)C(=O)N[C@H]1CCNC(=O)[C@H]([C@@H](C)O)NC(=O)[C@H](CCN)NC(=O)[C@H](CCN)NC(=O)[C@H](CC(C)C)NC(=O)[C@@H](CC(C)C)NC(=O)[C@H](CCN)NC1=O)[C@@H](C)O [colistin] | inactive: 1.07

For reference, part of the list above.
SMILES | OD600
COC1=CC(=O)C[C@@H](C)[C@]12Oc1c(Cl)c(OC)cc(OC)c1C2=O [Griseofulvin] + CCC(C)CCCC(=O)N[C@@H](CCN)C(=O)N[C@H](C(=O)N[C@@H](CCN)C(=O)N[C@H]1CCNC(=O)[C@H]([C@@H](C)O)NC(=O)[C@H](CCN)NC(=O)[C@H](CCN)NC(=O)[C@H](CC(C)C)NC(=O)[C@@H](CC(C)C)NC(=O)[C@H](CCN)NC1=O)[C@@H](C)O [colistin] | inactive: 1.03
Cn1c(=O)c2[nH]cnc2n(C)c1=O [Aminophylline] + CCC(C)CCCC(=O)N[C@@H](CCN)C(=O)N[C@H](C(=O)N[C@@H](CCN)C(=O)N[C@H]1CCNC(=O)[C@H]([C@@H](C)O)NC(=O)[C@H](CCN)NC(=O)[C@H](CCN)NC(=O)[C@H](CC(C)C)NC(=O)[C@@H](CC(C)C)NC(=O)[C@H](CCN)NC1=O)[C@@H](C)O [colistin] | inactive: 1
